PubChem BioAssay AID602196 | INSERM – 2012

- Aim: 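Genes whose knock-down alters cisplatin killing of lung cancer cells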
- Cells: human A549 lung cancer cells
- Reagents: siRNA pair against human genes
- Timing: 48 h transfection before cisplatin; time from cisplatin to read-out not stated
- Treatment: cisplatin at a dose killing half of control-siRNA cells; exact dose and duration not given
- Measured: 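Shift in cisplatin death relative to control siRNA, from -50 (all cells die) to +50 (no cells die); siRNAs harmful on their own scored 0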
- Reading the numbers: two-siRNA summed score (-2 to +2): higher = both siRNAs protect from cisplatin killing; -2 means both sensitise; mean protection from cisplatin (shift in death): higher = protection from cisplatin killing
- Hit rule: 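siRNAs harmful alone (LDH or WST-1) get 0; others get +1 for less and -1 for more cisplatin killing; genes are active when the two siRNAs give the same sign, summing to ±2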
- Calls: active = both siRNAs shift cisplatin killing the same way; inactive = no consistent shift, or siRNA harmful alone
In all, the deposit lists about 23,000 reagents; shown is a random part of them. 455 of them (2%) were called active. 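Active includes both protection and sensitisation; some change values fall well beyond the stated -50 to +50 range.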 A number with no mark means an inactive call. Not all columns of the deposit are shown. Not stated in the record: the amount of reagent.

How did the screen score MAP7D2?
two-siRNA summed score (-2 to +2): 1; mean protection from cisplatin (shift in death) (%): 8.1

With OR4A16, what was measured?
two-siRNA summed score (-2 to +2): 0; mean protection from cisplatin (shift in death) (%): -4.9

Which result is listed for FOCAD?
two-siRNA summed score (-2 to +2): 0; mean protection from cisplatin (shift in death) (%): 5.5

What is on record for DRAIC?
two-siRNA summed score (-2 to +2): 1; mean protection from cisplatin (shift in death) (%): 13.9

Which result is listed for SERPINA6?
two-siRNA summed score (-2 to +2): 0; mean protection from cisplatin (shift in death) (%): -13.5

What did the screen give for PCDHAC2?
two-siRNA summed score (-2 to +2): 0; mean protection from cisplatin (shift in death) (%): 7.6

With SLC10A3, how do the results read?
two-siRNA summed score (-2 to +2): 0; mean protection from cisplatin (shift in death) (%): -15

For PLCXD1, what does the deposit list?
two-siRNA summed score (-2 to +2): 0; mean protection from cisplatin (shift in death) (%): -1.1

Records listed so far whose gene name begins with S or s:
SERPINA6 — two-siRNA summed score (-2 to +2) = 0; mean protection from cisplatin (shift in death) (%) = -13.5
SLC10A3 — two-siRNA summed score (-2 to +2) = 0; mean protection from cisplatin (shift in death) (%) = -15

The listing continues.
What is on record for CNTLN?
two-siRNA summed score (-2 to +2): -1; mean protection from cisplatin (shift in death) (%): -14.3

For TFPI, how do the results read?
two-siRNA summed score (-2 to +2): 0; mean protection from cisplatin (shift in death) (%): 4

How did the screen score LOC389858?
two-siRNA summed score (-2 to +2): 0; mean protection from cisplatin (shift in death) (%): 5.7

What is on record for LOC440821?
two-siRNA summed score (-2 to +2): 0; mean protection from cisplatin (shift in death) (%): 8.7
